Laboratory results from article PMC9283393.
No constants are given. Whether binding was seen depends on the method and setting. In cells and extracts the contact can be indirect. Some binding calls cover weakened binding; strength is not graded here.

Sequences of proteins named here, by UniProt entry; tags and fusion partners are left off. A change or cut given only in a name is not applied to a line headed by its entry. A line that says so, or that is headed by a name, gives the form on record, which may keep a tag or linker. Residues count along the entry.
UniProt O14964: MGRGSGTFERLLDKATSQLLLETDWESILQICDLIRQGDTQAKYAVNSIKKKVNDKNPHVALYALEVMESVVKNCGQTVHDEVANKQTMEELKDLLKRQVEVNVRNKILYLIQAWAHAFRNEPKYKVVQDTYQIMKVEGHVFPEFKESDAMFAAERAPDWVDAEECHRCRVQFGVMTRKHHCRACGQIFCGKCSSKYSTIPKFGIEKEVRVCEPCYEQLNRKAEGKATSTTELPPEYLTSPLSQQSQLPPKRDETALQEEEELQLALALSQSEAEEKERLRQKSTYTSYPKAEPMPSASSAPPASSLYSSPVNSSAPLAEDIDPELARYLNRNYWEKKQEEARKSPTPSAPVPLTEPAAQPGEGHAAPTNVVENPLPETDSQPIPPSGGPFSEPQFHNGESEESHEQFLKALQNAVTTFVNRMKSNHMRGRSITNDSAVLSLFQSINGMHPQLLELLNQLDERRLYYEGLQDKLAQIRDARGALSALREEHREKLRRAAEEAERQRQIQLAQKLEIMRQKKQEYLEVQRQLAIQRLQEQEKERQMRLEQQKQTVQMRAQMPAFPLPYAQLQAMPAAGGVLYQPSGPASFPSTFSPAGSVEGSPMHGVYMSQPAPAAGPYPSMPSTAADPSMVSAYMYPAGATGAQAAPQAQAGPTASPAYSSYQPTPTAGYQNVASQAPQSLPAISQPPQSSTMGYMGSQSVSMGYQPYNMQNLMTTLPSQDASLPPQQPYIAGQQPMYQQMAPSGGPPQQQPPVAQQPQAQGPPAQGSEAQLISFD
Flag-tagged HRS (a.a. 275–777), lacking the UIM: residues 275-777 of O14964
UniProt Q9NZQ7, residues 19-290: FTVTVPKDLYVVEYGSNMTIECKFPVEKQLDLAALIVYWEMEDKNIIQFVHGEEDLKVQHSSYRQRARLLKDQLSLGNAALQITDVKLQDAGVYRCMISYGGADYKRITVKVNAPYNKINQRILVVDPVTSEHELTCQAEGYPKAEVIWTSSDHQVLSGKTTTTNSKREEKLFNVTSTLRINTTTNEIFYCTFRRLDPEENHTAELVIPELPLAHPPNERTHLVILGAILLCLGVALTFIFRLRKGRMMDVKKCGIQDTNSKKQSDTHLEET
UniProt Q92783: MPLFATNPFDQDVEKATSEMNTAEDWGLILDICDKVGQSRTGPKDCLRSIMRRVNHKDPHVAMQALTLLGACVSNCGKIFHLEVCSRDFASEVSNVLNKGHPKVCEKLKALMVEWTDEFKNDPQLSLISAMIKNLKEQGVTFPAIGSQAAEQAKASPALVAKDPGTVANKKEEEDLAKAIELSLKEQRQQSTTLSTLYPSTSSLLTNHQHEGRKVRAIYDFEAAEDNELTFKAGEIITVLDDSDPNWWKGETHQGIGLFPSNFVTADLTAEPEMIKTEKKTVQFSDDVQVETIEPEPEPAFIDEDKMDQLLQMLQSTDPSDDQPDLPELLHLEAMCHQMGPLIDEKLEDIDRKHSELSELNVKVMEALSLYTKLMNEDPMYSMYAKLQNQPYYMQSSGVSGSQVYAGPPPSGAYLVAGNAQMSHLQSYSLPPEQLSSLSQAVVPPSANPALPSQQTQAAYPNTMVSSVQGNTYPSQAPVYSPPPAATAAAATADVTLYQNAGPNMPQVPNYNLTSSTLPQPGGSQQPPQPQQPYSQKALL

What was measured:
[1] = target: 3×Flag-tagged HRS S345A (phospho-deficient mutant) (UniProt O14964); assay: co-IP; WM9 cells stably expressing Flag-tagged HRS^WT, HRS^S345A or HRS^S345D; anti-Flag immunoprecipitation from NP-40 lysate (25 mM HEPES-KOH pH 7.4, 100 mM KCl, 5 mM MgCl2, 1% NP-40), 2 hr at 4 °C; western blot
[2] = target: 3×Flag-tagged HRS S345D (phospho-mimetic mutant) (UniProt O14964); assay: as above
[3] = target: 3×Flag-tagged wild-type HRS (hepatocyte growth factor-regulated tyrosine kinase substrate) (UniProt O14964); assay: as above
[4] = target: Flag-tagged HRS (a.a. 275–777), lacking the UIM (UniProt O14964); assay: co-IP; cells expressing PD-L1 and Flag-tagged full-length HRS or fragments; anti-Flag immunoprecipitation; western blot of bound PD-L1
[5] = target: Flag-tagged full-length HRS (domain mapping, Fig. 3j) (UniProt O14964); assay: as above

| binding [1] | binding [2] | binding [3] | binding [4] | binding [5] | Substance |
| --- | --- | --- | --- | --- | --- |
| binds | binds | binds | – | – | PD-L1 (endogenous in WM9 cells) (from UniProt Q9NZQ7 19-290) |
| – | – | – | binds | binds | PD-L1 (expressed together with Flag-HRS constructs, Fig. 3j) (from UniProt Q9NZQ7 19-290) |
| binds | binds | binds | – | – | STAM (endogenous in WM9 cells) (from UniProt Q92783 1-540) |
